The experiment has as its system MCF-7 cell line. The experiment in a line: MTT cytotoxicity assay in MCF-7 cells. In kind it is cell-based. The conditions noted are these: Homo sapiens, MCF7, 48 h, read-out: IC50 ± SD. The method in brief: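 MCF-7 cells grown in Eagle's MEM with 10% FBS, 1% penicillin/streptomycin, 0.1 mM non-essential amino acids, 10 μg/mL insulin and 1 mM sodium pyruvate at 37 °C, 5% CO2. Trypsin/EDTA-harvested cells were seeded at 6 × 10^4 cells/mL and incubated overnight. Test compound (1–30 μM, or a fixed 30 μM screen against doxorubicin) was applied for 48 h. MTT 0.5 mg/mL for 4 h, DMSO, A570; % inhibition and IC50.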
For orientation: Formazan colour is commonly taken as a measure of viable cells.

Here are results for 1 compound from article PMC7992179 (ACS Omega, 2021).

In general, IC50 refers to the midpoint of a concentration-inhibition curve.

Consider `COc1cccc2c1C(=O)c1c(O)c3c(c(O)c1C2=O)C[C@@](O)(C(=O)CO)C[C@@H]3O[C@H]1C[C@H](N)[C@H](O)[C@H](C)O1` [doxorubicin (DOX), doxorubicin, reference compound], for which the concentration for half-maximal inhibition (IC50) came out at 900 ± 140 nM.
